Experimental data taken from the supplement of paper PMC7877785.
± gives the uncertainty stated by the source. The uncertainty is large for many entries.

Assay: self-splicing fitness, log relative to wild type (ln ratio); higher = more splicing; Tetrahymena group I intron in knt gene, E. coli kanamycin selection, DiMSum; sequences stand for … in CUCUCU…GGAGGGAAAAGUUAUCAGGCAUGCACCUGGUAGCUAGUCUUUAAACCAAUAGAUUGCAUCGGUUUAAAAGGCAAGACCGUCAAAUUGCGGGAAAGGGGUCAACAGCCGUUCAGUACCAAGUCUCAGGGGAAACUUUGAGAUGGCCUUGCAAAGGGUAUGGUAAUAAGCUGACGGACAUGGUCCUAACCACGCAGCCAAGUCCUAAGUCAACAGAUCUUCUGUUGAUAUGGAUGCAGUUCACAGACUAAAUGUCGGUCGGGGAAGAUGUAUUCUUCUCAUAAGAUAUAGUCGGACCUCUCCUUAAUGGGAGCUAGCGGAUGAAGUGAUGCAACACUGGAGCCGCUGGGAACUAAUUUGUAUGCGAAAGUAUAUUGAUUAGUUUUGGAGUACUCGUGGUCG
Procedure, shortened: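 A randomised library covering all eight P1ex-region intron nucleotides was built with the intron in the knt kanamycin-resistance gene on pET-22b(+) and held in E. coli BL21(DE3). Cells were grown overnight at 37°C or 30°C on LB agar, with or without 25 μg/mL kanamycin, plus 100 μg/mL carbenicillin, 50 μM IPTG and 0.2% rhamnose, and pooled colonies were amplicon-sequenced on an Illumina HiSeq 2500. DiMSum fitness is the error-weighted combination of wild-type-normalised replicate fold changes, kanamycin versus none.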

Sequence	self-splicing fitness (ln) (37 °C)	self-splicing fitness (ln) (30 °C)
UUUUAGCAAUAUUACGACAC	-1.29 ± 1.2	
UAGGAGCAAUAUUACGUCCC	-1.33 ± 1.2	-0.77 ± 0.71
AGGGAGCAAUAUUACGUGUU	-1.73 ± 0.29	-2.63 ± 0.31
CUGUAGCAAUAUUACGUCUC	-2.71 ± 0.62	
UUAAAGCAAUAUUACGAAUU	-2.46 ± 0.21	-1.97 ± 0.11
GAUUAGCAAUAUUACGGGUC		-4.65 ± 0.52
CUAUAGCAAUAUUACGCCUA	-2.19 ± 0.55	-1.39 ± 0.63
UCAGAGCAAUAUUACGCCGU		-4.07 ± 0.72
AUUUAGCAAUAUUACGCGGC		-3.19 ± 0.82
GCUUAGCAAUAUUACGUGCU	-1.41 ± 0.18	-2.78 ± 0.19
UCUUAGCAAUAUUACGAUAC		-5.01 ± 1
CACCAGCAAUAUUACGCGAC	-2.89 ± 0.23	-4.31 ± 0.2
AUUGAGCAAUAUUACGCAUC	-2.57 ± 0.62	-3.86 ± 0.51
GUCGAGCAAUAUUACGUCAC	-3.98 ± 0.82	-2.35 ± 0.69
UUAUAGCAAUAUUACGGGAA	-1.26 ± 0.28	-1.59 ± 0.29
AAAGAGCAAUAUUACGUCGC	-3.13 ± 0.6	
CUUGAGCAAUAUUACGGACU	-3.54 ± 0.6	-3.97 ± 0.59
GAAGAGCAAUAUUACGUAAA	-0.64 ± 0.92	-4.11 ± 0.6
AGGGAGCAAUAUUACGUUCC		-4.14 ± 0.59
CGGAAGCAAUAUUACGUUAC	-2.57 ± 0.2	-5.47 ± 0.58
UGUCAGCAAUAUUACGUCCC	-2.07 ± 0.65	-0.651 ± 0.68

Quoted from the listing:
Entry of UUUUAGCAAUAUUACGACAC under self-splicing fitness (ln) (37 °C): -1.29 ± 1.2
Entry of AUUUAGCAAUAUUACGCGGC under self-splicing fitness (ln) (30 °C): -3.19 ± 0.82
Entry of UUAUAGCAAUAUUACGGGAA under self-splicing fitness (ln) (30 °C): -1.59 ± 0.29

(continued)

Sequence	self-splicing fitness (ln) (37 °C)	self-splicing fitness (ln) (30 °C)
ACCUAGCAAUAUUACGUCCC	-1.25 ± 0.63	
CUUAAGCAAUAUUACGCAGG	-2.96 ± 0.32	-3.05 ± 0.21
CUUCAGCAAUAUUACGCCGG	-1.59 ± 0.7	
CUGUAGCAAUAUUACGGGCC		-2.83 ± 0.54
CAGGAGCAAUAUUACGCAAC	-2.82 ± 0.52	
GCCCAGCAAUAUUACGUAUU	-0.786 ± 0.074	-2.02 ± 0.066
UGUUAGCAAUAUUACGAGGA		-4.25 ± 0.61
CGAUAGCAAUAUUACGACCC	0.108 ± 0.65	
UUGUAGCAAUAUUACGGUAC	-2.94 ± 1	-4.6 ± 0.59
ACAGAGCAAUAUUACGAGUA		-2.78 ± 0.55
UUUAAGCAAUAUUACGUACC	-0.234 ± 1.4	
AUGUAGCAAUAUUACGAUCU	0.524 ± 0.073	-0.222 ± 0.056
AUGGAGCAAUAUUACGCUAC		-1.64 ± 0.6
GUUGAGCAAUAUUACGUCUC		-0.631 ± 1.2
CACGAGCAAUAUUACGACUC		-3.64 ± 1
UCGUAGCAAUAUUACGGAAC	-1.22 ± 0.51	-3.73 ± 0.52
GGAGAGCAAUAUUACGAAGC	-2.36 ± 0.55	
CCAUAGCAAUAUUACGCCGC	-2.48 ± 0.55	
UGGGAGCAAUAUUACGCAUU	-2.73 ± 0.61	
GGAUAGCAAUAUUACGCCAU	-1.41 ± 0.52	-2.07 ± 0.61
